Reference: PubChem BioAssay AID504808 (Drosophila RNAi Screening Center, 2011)

Test: 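Chromatin factors that keep E2F targets switched off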 (primary screen)
Cells: Drosophila S2 cells
Reagents: long dsRNA against Drosophila genes
Measurement: 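Firefly luciferase driven by E2F sites, normalised to Renilla luciferase on the same minimal promoter, measured by plate reader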
Reading the numbers: E2F firefly: higher = more E2F reporter activity; Renilla normaliser: higher = more normaliser reporter signal
Call rule: 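a knock-down counted as active when the firefly/Renilla E2F signal rose above 50%, a threshold chosen arbitrarily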
In all, the deposit lists about 21,000 reagents; below is an unselected part of those that have a named target and a result. In the full data, 18 (0.084%) are marked active. 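Raw counts without plate normalisation, one of two replicates; the ratio scores behind the calls were not deposited.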 The numbers tell different reagents against one gene apart. The record does not give: the amount of reagent, the time to read-out.

The opening 2 entries, ahead of the listing:
betaTub97EF #1
- E2F firefly, rep 1: 1.01e5
- Renilla normaliser, rep 1: 5594
- outcome: inactive

betaTub97EF #2
- E2F firefly, rep 1: 1.10e5
- Renilla normaliser, rep 1: 5679
- outcome: inactive

The list itself, from the first entry:
betaTub97EF #1
- E2F firefly, rep 1: 1.01e5
- Renilla normaliser, rep 1: 5594
- outcome: inactive

betaTub97EF #2
- E2F firefly, rep 1: 1.10e5
- Renilla normaliser, rep 1: 5679
- outcome: inactive

betaTub97EF #3
- E2F firefly, rep 1: 1.18e5
- Renilla normaliser, rep 1: 5774
- outcome: inactive

CG13737
- E2F firefly, rep 1: 1.07e5
- Renilla normaliser, rep 1: 4809
- outcome: inactive

Smurf
- E2F firefly, rep 1: 1.26e5
- Renilla normaliser, rep 1: 4595
- outcome: inactive

Ir75c
- E2F firefly, rep 1: 1.74e5
- Renilla normaliser, rep 1: 10237
- outcome: inactive

CG34187 (retired record)
- E2F firefly, rep 1: 1.39e5
- Renilla normaliser, rep 1: 5199
- outcome: inactive

CG6136
- E2F firefly, rep 1: 77877
- Renilla normaliser, rep 1: 3384
- outcome: inactive

CG8010
- E2F firefly, rep 1: 1.63e5
- Renilla normaliser, rep 1: 5166
- outcome: inactive

ND-51
- E2F firefly, rep 1: 79231
- Renilla normaliser, rep 1: 3485
- outcome: inactive

CG43795 #1
- E2F firefly, rep 1: 1.11e5
- Renilla normaliser, rep 1: 5049
- outcome: inactive

CG43795 #2
- E2F firefly, rep 1: 1.11e5
- Renilla normaliser, rep 1: 4734
- outcome: inactive

CG43795 #3
- E2F firefly, rep 1: 1.00e5
- Renilla normaliser, rep 1: 4106
- outcome: inactive

CG43795 #4
- E2F firefly, rep 1: 1.01e5
- Renilla normaliser, rep 1: 4541
- outcome: inactive

CG43795 #5
- E2F firefly, rep 1: 1.02e5
- Renilla normaliser, rep 1: 4087
- outcome: inactive
